From patent publication US20030143656A1
No constants are given. Whether binding was seen depends on the method and setting. Binding seen in cells or lysates may run through a third protein. Some entries that bind do so weakly or less than the wild type. Where a sequence is shown, tags or fusion partners need not be part of it.

The chains behind the UniProt entries cited, without tags or fusion partners. Where a name states a change or a piece, a line headed by the entry shows the natural chain unless it says otherwise. A line that says so, or that is headed by a name, gives the form on record, which may keep a tag or linker. Residues count along the entry.
UniProt P23443: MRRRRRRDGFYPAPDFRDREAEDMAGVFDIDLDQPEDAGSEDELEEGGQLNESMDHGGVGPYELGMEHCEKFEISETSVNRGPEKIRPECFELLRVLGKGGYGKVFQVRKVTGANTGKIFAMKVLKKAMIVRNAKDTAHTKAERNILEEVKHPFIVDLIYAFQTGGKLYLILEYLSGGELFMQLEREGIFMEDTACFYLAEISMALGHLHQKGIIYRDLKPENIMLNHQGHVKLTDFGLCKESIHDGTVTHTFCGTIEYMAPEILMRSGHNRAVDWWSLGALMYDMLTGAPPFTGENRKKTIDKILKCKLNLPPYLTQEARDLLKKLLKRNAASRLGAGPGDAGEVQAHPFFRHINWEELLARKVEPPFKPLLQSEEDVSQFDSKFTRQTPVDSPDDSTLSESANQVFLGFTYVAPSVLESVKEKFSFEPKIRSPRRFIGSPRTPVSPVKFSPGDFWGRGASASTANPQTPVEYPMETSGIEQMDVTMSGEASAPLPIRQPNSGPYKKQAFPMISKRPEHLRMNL
full length S6K1 mutant in which Thr412 and all five phosphorylated C-terminal residues were mutated to acidic residues (P23443, form named): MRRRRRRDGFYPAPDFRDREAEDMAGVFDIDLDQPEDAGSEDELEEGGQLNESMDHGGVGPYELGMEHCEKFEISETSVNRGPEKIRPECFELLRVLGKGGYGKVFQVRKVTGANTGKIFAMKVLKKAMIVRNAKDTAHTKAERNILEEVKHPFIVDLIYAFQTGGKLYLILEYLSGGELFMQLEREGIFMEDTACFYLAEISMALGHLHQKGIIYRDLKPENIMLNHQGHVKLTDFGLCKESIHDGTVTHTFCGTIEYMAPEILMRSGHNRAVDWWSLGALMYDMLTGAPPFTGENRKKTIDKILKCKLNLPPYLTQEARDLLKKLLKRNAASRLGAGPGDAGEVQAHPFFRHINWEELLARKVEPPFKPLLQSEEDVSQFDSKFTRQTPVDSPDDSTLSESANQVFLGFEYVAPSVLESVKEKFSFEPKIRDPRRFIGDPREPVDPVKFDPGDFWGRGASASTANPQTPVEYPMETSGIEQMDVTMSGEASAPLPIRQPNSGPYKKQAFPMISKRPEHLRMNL

Molecular target: T1, GST-PDK1 (wild type) (human) (UniProt O15530)
T1 sequence (looked up): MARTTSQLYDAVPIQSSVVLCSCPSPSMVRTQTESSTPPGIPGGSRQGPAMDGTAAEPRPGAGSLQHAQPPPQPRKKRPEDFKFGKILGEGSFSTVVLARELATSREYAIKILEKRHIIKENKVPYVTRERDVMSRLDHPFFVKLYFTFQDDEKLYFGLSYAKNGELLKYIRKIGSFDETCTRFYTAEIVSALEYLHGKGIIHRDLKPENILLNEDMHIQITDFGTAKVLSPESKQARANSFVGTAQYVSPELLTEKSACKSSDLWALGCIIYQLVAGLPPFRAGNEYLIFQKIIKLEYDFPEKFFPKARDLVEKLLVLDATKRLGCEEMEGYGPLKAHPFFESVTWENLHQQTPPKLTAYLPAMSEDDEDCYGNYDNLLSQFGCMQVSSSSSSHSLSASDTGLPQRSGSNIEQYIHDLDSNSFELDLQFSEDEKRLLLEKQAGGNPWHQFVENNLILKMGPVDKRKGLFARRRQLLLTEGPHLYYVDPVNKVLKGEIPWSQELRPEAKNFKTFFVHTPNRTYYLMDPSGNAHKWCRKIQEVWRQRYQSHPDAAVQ
Assay: binding experiment not described (presumably pull-down)

full length S6K1 mutant in which Thr412 and all five phosphorylated C-terminal residues were mutated to acidic residues (from UniProt P23443 1-525) (enzyme)
binding: binds
